No constants are given. Whether binding was seen depends on the method and setting. Some binding calls cover weakened binding; strength is not graded here.
Molecular target: tetraspanin CD63 on TIMP-1 KO T3M4 cells (human (endogenous in T3M4)) (UniProt P08962)
Assay: flow cytometry on cells; TIMP-1 KO T3M4 cells incubated with equimolar (escalating) doses of recombinant TIMP-1 in 1% BSA in PBS for 10 min on ice, washed, fixed with 2% PFA, stained for TIMP-1 and CD63; geometric mean of TIMP-1 staining of CD63-positive single cells, untreated control subtracted; only the binder purified

Protein sequences, listed by entry. Tags and fused reporters are not part of them. Residues count along the entry.
UniProt P08962: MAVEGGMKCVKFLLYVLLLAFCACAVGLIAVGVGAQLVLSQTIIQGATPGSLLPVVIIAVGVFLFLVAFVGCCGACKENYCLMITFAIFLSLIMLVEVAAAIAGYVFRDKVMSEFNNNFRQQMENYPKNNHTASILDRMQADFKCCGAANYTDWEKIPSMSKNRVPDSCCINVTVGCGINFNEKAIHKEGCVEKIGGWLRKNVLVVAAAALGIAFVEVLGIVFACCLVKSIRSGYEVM
UniProt P01033, residues 24-207: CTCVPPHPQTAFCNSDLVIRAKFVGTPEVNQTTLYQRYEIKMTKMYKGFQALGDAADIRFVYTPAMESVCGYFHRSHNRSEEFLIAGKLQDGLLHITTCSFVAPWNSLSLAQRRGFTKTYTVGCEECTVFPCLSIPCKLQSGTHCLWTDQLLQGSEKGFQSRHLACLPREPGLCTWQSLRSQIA

binding: binds
Substance: recombinant double-glycosylated TIMP-1 (rTIMP-1^glyc1/1) (from UniProt P01033 24-207)
